{
  "source": "patent US20100130725A1",
  "about": "“METHODS FOR CHARACTERIZING MOLECULES” (priority 2008, published 2010)",
  "tested_on": "A549 cells",
  "assay": "Epic RWG biosensor DMR assay, agonist mode (primary profile), A549 cells",
  "type": "cell-based, human",
  "details": "ligand 10 μM",
  "protocol": "All cell lines were obtained from American Type Cell Culture (Manassas, Va.). The cell culture medium was as follows: Dulbecco's modified Eagle's medium (DMEM) supplemented with 10% fetal bovine serum (FBS), 4.5 g/liter glucose, 2 mM glutamine, and antibiotics for human epidermoid carcinoma A431 and human lung carcinoma A549.\nCells were typically grown using ˜1 to 2×10^4 cells per well at passage 3 to 15 suspended in 50 μl of the corresponding culture medium in the biosensor microplate, and were cultured at 37° C. under air/5% CO2 for ˜1 day. Except for A431, which was subject to ˜20 hr starvation through continuous culture in the serum-free DMEM, the other cell types were directly assayed without starvation. The confluency for all cells at the time of assays was ˜95% to 100%. […]\nFor biosensor cellular assays, molecule solutions were made by diluting the stored concentrated solutions with the HBSS (1× Hanks balanced salt solution, plus 20 mM Hepes, pH 7.1), and transferred into a 384 well polypropylene molecule storage plate to prepare a molecule source plate. […] Both the cell assay plate and the molecule and marker source plate(s) were then incubated in the hotel of the reader system. After ˜1 hr of incubation the baseline wavelengths of all biosensors in the cell assay microplate were recorded and normalized to zero. […]",
  "note": "At least one compound was matched to its structure with a doubt left. Peptide text beside a SMILES is read from it.",
  "data": [
    {"compound": "NC(N)=NCCC[C@H](NC(=O)[C@H](Cc1ccccc1)NC(=O)[C@@H]1CCCN1C(=O)[C@H](CO)NC(=O)[C@H](Cc1ccccc1)NC(=O)CNC(=O)[C@@H]1CCCN1C(=O)[C@@H]1CCCN1C(=O)[C@@H](N)CCCN=C(N)N)C(=O)O", "note": "[bradykinin] (H-RPPGFSPFR-OH)", "values": [
      {"measurement": "DMR signal triggered by the ligand (primary profile)", "value": "robust DMR signals"}
    ]}
  ]
}
